Results deposited as PubChem BioAssay AID652243 (Drosophila RNAi Screening Center, 2013)
In all, the deposit lists about 24,000 reagents; below is a random part of those that have a named target and a result. Over the whole deposit, 246 (1%) are marked active. 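Plates not normalised; calls are printed but the firefly/Renilla ratio behind them is not deposited; fold cut for lowering reported inconsistently.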 The raw values are shown without normalisation. Entries without a mark were called inactive. A plus sign joins genes that one reagent is predicted to hit. Not stated in the record: the amount of reagent.

Aim: 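Knock-downs that decrease or increase androgen receptor reporter signal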 (primary screen)
Cells: Drosophila S2R+ cells
Reagent: long dsRNA against Drosophila genes
Timing: 72 h (48 h, then 24 h hormone)
Challenge: synthetic androgen R1881 at 10 nM for 24 h
Detection: 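Firefly light from an androgen-responsive reporter and Renilla control light per well, raw and unnormalised, for each of two replicates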
Reading the numbers: firefly reporter light: higher = more light from androgen-responsive reporter; Renilla control light: higher = more constitutive control signal (cell number, transfection)
Rule for the call: 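Across duplicate plates, a knock-down whose log firefly/Renilla ratio shifted a set fold down or up from the GFP/LacZ control mean was a hit; the downward cut appears as both 1.5 and 3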
Calls: active = hit: reporter lowered or raised; inactive = no hit

The first 2 records, to show the layout:
gene,amplicon,"firefly reporter light, replicate 1","firefly reporter light, replicate 2","Renilla control light, replicate 1","Renilla control light, replicate 2"
CG18467,DRSC06758,64889,98682,1.52e6,1.52e6
frma (fra mauro),DRSC18297,59409,46236,4.10e5,4.26e5

The list itself, from the start:
gene,amplicon,"firefly reporter light, replicate 1","firefly reporter light, replicate 2","Renilla control light, replicate 1","Renilla control light, replicate 2"
CG18467,DRSC06758,64889,98682,1.52e6,1.52e6
frma (fra mauro),DRSC18297,59409,46236,4.10e5,4.26e5
frma (fra mauro),DRSC27843,1.40e6,9.19e5,4.09e6,1.76e6
CG7290,DRSC10800,3.84e5,2.45e5,2.98e6,2.63e6
CG7290,DRSC26651,2.51e5,2.07e5,8.30e5,7.68e5
CG14903,DRSC15024,1.92e5,1.44e5,2.48e6,2.54e6
alpha-Est1 (alpha-Esterase-1),DRSC12612,18803,36406,1.98e5,2.60e5
CG14126 (retired record),DRSC10130,1.72e5,1.24e5,1.58e6,1.51e6
CG14126 (retired record),DRSC28859,5.42e5,6.85e5,1.26e6,1.22e6
mtrm (matrimony),DRSC23076,4.81e5,5.05e5,1.92e6,2.43e6
CG34289,DRSC38814,1.01e6,8.41e5,2.11e6,1.71e6
Cyp12e1 (Cytochrome P450 12e1),DRSC16622,1.87e5,2.76e5,2.11e6,3.32e6
mRpL28 (mitochondrial ribosomal protein L28),DRSC02724,1.82e5,1.15e5,2.35e6,9.29e5
CG34216,DRSC38631,8.84e5,8.64e5,2.06e6,2.41e6
CCDC53 (Coiled-coil domain containing 53),DRSC03056,1.58e5,1.66e5,1.30e6,1.28e6
l(2)09851 (lethal (2) 09851),DRSC04858,4.96e5,5.40e5,3.06e6,2.83e6
RNaseX25 (Ribonuclease X25),DRSC11259,7.72e5,3.90e5,1.77e6,1.25e6
RNaseX25 (Ribonuclease X25),DRSC29835,8.23e5,7.00e5,1.31e6,1.71e6
usp (ultraspiracle),DRSC18847,1.06e5,2.25e5,2.98e6,4.18e6
usp (ultraspiracle),DRSC24447,98617,1.33e5,3.30e5,1.78e5
CG3909,DRSC14150,69058,1.22e5,1.35e6,1.98e6
GstE4 (Glutathione S transferase E4),DRSC06674,68555,54728,1.00e6,1.00e6
GstE4 (Glutathione S transferase E4),DRSC24213,6.00e5,2.86e5,4.50e5,4.40e5
Idgf3 (Imaginal disc growth factor 3),DRSC03351,9.21e5,9.66e5,7.76e5,1.89e6
Amyrel (Amylase related),DRSC05920,1.14e6,1.18e6,2.43e6,2.40e6
side-VII (sidestep VII),DRSC14578,1.06e5,1.51e5,8.39e5,1.20e6
CR43361 (pseudo),DRSC17206,3.80e5,3.31e5,3.46e6,3.07e6
CR43361 (pseudo),DRSC23926,7.48e5,6.18e5,9.23e5,8.71e5
lncRNA:Hsromega (Heat shock RNA omega),DRSC22875,7.58e5,9.39e5,1.85e6,2.16e6
lncRNA:Hsromega (Heat shock RNA omega),DRSC26039,3.63e5,3.42e5,8.75e5,8.63e5
fln (flightin),DRSC11346,63794,48768,6.98e5,5.06e5
fln (flightin),DRSC28670,5.37e5,3.68e5,1.42e6,1.20e6
CG5883,DRSC10552,1.52e5,1.73e5,1.19e6,7.96e5
CG9875,DRSC04585,3.30e5,2.97e5,2.08e6,1.77e6
Xrcc2 (X-ray repair cross complementing 2),DRSC19984,6.70e5,5.27e5,3.37e6,2.81e6
Xrcc2 (X-ray repair cross complementing 2),DRSC29513,3.87e5,4.96e5,2.61e5,2.61e5
SoxN (SoxNeuro),DRSC03440,2.08e5 (active),1.78e5,2.43e6,2.31e6
SoxN (SoxNeuro),DRSC24984,3.98e5,3.67e5,7.72e5,5.65e5
CG6769,DRSC20006,1.21e5,2.88e5,7.08e5,8.16e5
CG6980,DRSC16162,1.63e5,1.23e5,6.69e5,5.98e5
CG6980,DRSC29355,9.33e5,1.00e6,1.15e6,1.15e6
OtopLb (Otopetrin-like b),DRSC00594,8.21e5,9.90e5,1.50e6,1.78e6
OtopLb (Otopetrin-like b),DRSC27337,2.16e5,2.09e5,5.71e5,5.56e5
Dnaaf4 (Dynein axonemal assembly factor 4),DRSC02405,1.43e5,2.42e5,1.56e6,2.08e6
gom (gomdanji),DRSC04690,3.31e5,3.26e5,2.26e6,2.00e6
eEF1delta (eukaryotic translation elongation factor 1 delta),DRSC02790,7.97e5,7.67e5,1.42e6,1.69e6
eEF1delta (eukaryotic translation elongation factor 1 delta),DRSC26084,3.58e5,2.55e5,7.38e5,7.37e5
Dus3 (Dihydrouridine synthase 3),DRSC02059,1.34e5,1.29e5,1.15e6,1.12e6
Dus3 (Dihydrouridine synthase 3),DRSC30102,9.01e5,8.01e5,1.02e6,7.68e5
CG11041,DRSC06025,1.20e5,1.19e5,1.29e6,1.22e6
CG11041,DRSC29269,5.19e5,7.93e5,1.54e6,1.43e6
Ir94h (Ionotropic receptor 94h),DRSC15232,2.14e5,2.77e5,2.55e6,2.60e6
Jon65Aii (Jonah 65Aii),DRSC10665,2.47e5,2.92e5,1.85e6,2.02e6
daed + CG34174,DRSC27640,3.59e5,2.09e5,6.77e5,7.82e5
BckdhA (Branched chain keto acid dehydrogenase E1 subunit alpha),DRSC16395,1.16e5,1.50e5,2.07e6,2.65e6
CG3123,DRSC38928,8.34e5,8.81e5,2.00e6,1.83e6
CG17472,DRSC02622,1.48e5,1.52e5,1.47e6,1.70e6
Las (Lipoic acid synthase),DRSC11772,28960,10849,2.31e5,1.95e5
Las (Lipoic acid synthase),DRSC26539,4.46e5,4.38e5,5.06e5,3.49e5
CG11191,DRSC23224,6.87e5,8.14e5,1.13e6,8.92e5
CG11191,DRSC28710,4.50e5,3.12e5,1.18e6,9.29e5
"beta-PheRS (Phenylalanyl-tRNA synthetase, beta-subunit)",DRSC15859,65124,43760,3.52e5,3.86e5
"beta-PheRS (Phenylalanyl-tRNA synthetase, beta-subunit)",DRSC26218,3.85e5,4.91e5,4.57e5,4.56e5
CG31204,DRSC15106,1.49e5,1.56e5,1.35e6,2.57e6
CG31204,DRSC28757,4.97e5,4.12e5,1.63e6,1.75e6
Tm2 (Tropomyosin 2),DRSC16887,1.31e5,1.07e5,1.77e6,1.97e6
Tm2 (Tropomyosin 2),DRSC26884,3.11e5,3.11e5,6.58e5,8.25e5
CG12020,DRSC08226,72170,52712,9.38e5,1.10e6
CG12020,DRSC28730,3.62e5,2.76e5,1.29e6,1.15e6
CG4611,DRSC10434,1.78e5,2.56e5,2.52e6,3.38e6
CG4611,DRSC26382,2.78e5 (active),2.67e5,1.10e6,1.07e6
CG4611,DRSC39046,3.09e5,7.59e5,8.71e5,2.19e6
CG13559,DRSC04197,3.39e5,2.55e5,2.26e6,1.91e6
CatB (Catalase B),DRSC03194,1.86e6,2.24e6,3.54e6,3.53e6
CatB (Catalase B),DRSC24516,6.68e5,8.30e5,5.77e5,7.19e5
